Record: PubChem BioAssay AID493246 (Drosophila RNAi Screening Center, 2011)
In all, the deposit lists about 21,000 reagents; shown is a random part of those that have a named target and a result. In the full data, 429 (2%) are marked active. 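Values are raw and not normalised between plates; calls rest on per-plate z-scores that were not deposited.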 No sequences are given here. The record does not give: the amount of reagent, the time to read-out.

Assay: 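Genes fly cells need to grow and stay alive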 (primary screen)
System: Drosophila Kc and S2R+ cells
Reagents: long dsRNA against Drosophila genes
Measurement: 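Cell number per well after knock-down, printed as raw plate values; calls were based on per-plate z-scores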
Reading the numbers: Kc cell number and S2R+ cell number: higher = more cells remaining
Active means: 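Active when the per-plate z-score of cell number is 3 or more in the direction of fewer cells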

no.	gene	PubChem SID	Kc cell number, rep 1	Kc cell number, rep 2	S2R+ cell number, rep 1	S2R+ cell number, rep 2	Outcome
1	Atg12 (GeneID 39383)	SID104189595	1.52e6	1.80e6	1.33e6	1.39e6	inactive
2	Max (GeneID 40095)	SID104191010	1.50e6	1.51e6	1.36e6	1.46e6	inactive
3	Gr21a (GeneID 33251)	SID104180158	1.61e6	1.66e6	1.08e6	1.22e6	inactive
4	TM9SF2 (GeneID 35335)	SID104182989	1.08e6	1.24e6	9.79e5	9.29e5	inactive
5	CG7044 (GeneID 42497)	SID104195972	1.33e6	1.35e6	1.15e6	1.24e6	inactive
6	CG12460 (retired record) (GeneID 3355078)	SID104200762	1.57e6	1.57e6	9.49e5	1.08e6	inactive
7	CG3168 (GeneID 31612)	SID104198079	5.19e5		8.12e5		inactive
8	omd (GeneID 41674)	SID104196299	1.33e6	1.40e6	9.91e5	1.08e6	inactive
9	futsch (GeneID 5740544)	SID104197480	1.30e6	1.47e6	1.08e6	1.13e6	inactive
10	futsch (GeneID 5740544)	SID104197741	1.37e6	1.51e6	1.01e6	1.11e6	inactive
11	futsch (GeneID 5740544)	SID104197744	5.15e5		8.10e5		inactive
12	futsch (GeneID 5740544)	SID104198335	1.57e6	1.71e6	1.02e6	1.09e6	inactive
13	TpnC73F (GeneID 39916)	SID104191099	1.68e6	1.82e6	1.26e6	1.32e6	inactive
14	Vha68-1 (GeneID 45668)	SID104183262	1.87e6	2.04e6	1.27e6	1.40e6	inactive
15	CG1142 (GeneID 40894)	SID104192323	1.68e6	1.90e6	1.21e6	1.33e6	inactive
16	CG30274 (GeneID 246521)	SID104183963	1.52e6	1.58e6	1.31e6	1.35e6	inactive
17	CG17666 (GeneID 39452)	SID104190068	1.29e6	1.43e6	1.21e6	1.36e6	inactive
18	CG4950 (GeneID 39783)	SID104190255	1.58e6	1.82e6	1.51e6	1.68e6	inactive
19	CG15742 (GeneID 32276)	SID104199500	6.19e5		7.98e5		inactive
20	Snx1 (GeneID 33560)	SID104180323	1.47e6	1.45e6	1.11e6	1.28e6	inactive
21	CG14957 (GeneID 38386)	SID104188208	1.59e6	1.59e6	1.12e6	1.29e6	inactive

The list goes on; the last 7 above are carried over.
no.	gene	PubChem SID	Kc cell number, rep 1	Kc cell number, rep 2	S2R+ cell number, rep 1	S2R+ cell number, rep 2	Outcome
15	CG1142 (GeneID 40894)	SID104192323	1.68e6	1.90e6	1.21e6	1.33e6	inactive
16	CG30274 (GeneID 246521)	SID104183963	1.52e6	1.58e6	1.31e6	1.35e6	inactive
17	CG17666 (GeneID 39452)	SID104190068	1.29e6	1.43e6	1.21e6	1.36e6	inactive
18	CG4950 (GeneID 39783)	SID104190255	1.58e6	1.82e6	1.51e6	1.68e6	inactive
19	CG15742 (GeneID 32276)	SID104199500	6.19e5		7.98e5		inactive
20	Snx1 (GeneID 33560)	SID104180323	1.47e6	1.45e6	1.11e6	1.28e6	inactive
21	CG14957 (GeneID 38386)	SID104188208	1.59e6	1.59e6	1.12e6	1.29e6	inactive
22	Cyp313a3 (GeneID 41488)	SID104196418	1.56e6	1.56e6	1.26e6	1.33e6	inactive
23	CG17049 (retired record) (GeneID 36483)	SID104186442	1.49e6	1.54e6	1.16e6	1.25e6	inactive
24	CG14422 (GeneID 31286)	SID104197711	1.74e6	1.75e6	1.04e6	1.23e6	inactive
25	tsu (GeneID 35924)	SID104187057	1.67e6	1.86e6	1.23e6	1.39e6	inactive
26	mRpL48 (GeneID 33348)	SID104180298	1.45e6	1.66e6	1.03e6	1.18e6	inactive
27	Synd (GeneID 42467)	SID104194908	1.38e6	1.55e6	9.10e5	9.68e5	inactive
28	Ugt302K1 (GeneID 53502)	SID104195878	1.60e6	1.56e6	1.19e6	1.32e6	inactive
29	CG13856 (GeneID 42628)	SID104194498	1.26e6	1.25e6	1.15e6	1.22e6	inactive
30	CG13324 (GeneID 36434)	SID104186153	1.51e6	1.55e6	1.28e6	1.42e6	inactive
31	blow (GeneID 35694)	SID104187378	1.09e6	1.28e6	1.00e6	1.01e6	inactive
32	CG3803 (GeneID 37809)	SID104184212	1.66e6	1.64e6	1.31e6	1.43e6	inactive
33	CG15876 (GeneID 38573)	SID104188276	1.59e6	1.49e6	1.25e6	1.27e6	inactive
34	Cndp2 (GeneID 35507)	SID104184665	1.54e6	1.52e6	1.18e6	1.36e6	inactive
35	CG2750 (GeneID 32179)	SID104199659	1.67e6	1.82e6	1.11e6	1.36e6	inactive
36	bin3 (GeneID 35552)	SID104184711	1.46e6	1.53e6	1.10e6	1.41e6	inactive
37	CG9114 (GeneID 32460)	SID104199947	1.61e6	1.63e6	1.03e6	1.12e6	inactive
38	Orc6 (GeneID 36017)	SID104187289	1.74e6	1.76e6	1.44e6	1.93e6	inactive
39	MED27 (GeneID 40696)	SID104191997	1.62e6	1.82e6	1.38e6	1.49e6	inactive
40	CG2921 (GeneID 37515)	SID104184116	1.36e6	1.41e6	1.11e6	1.09e6	inactive
41	Pgant35A (GeneID 48775)	SID104183349	1.50e6	1.48e6	1.12e6	1.20e6	inactive
42	CG12860 (GeneID 36629)	SID104185992	1.48e6	1.54e6	1.23e6	1.32e6	inactive
43	Dark (GeneID 36914)	SID104185714	1.38e6	1.42e6	1.28e6	1.37e6	inactive
44	CG15729 (retired record) (GeneID 32204)	SID104199487	1.48e6	1.48e6	9.95e5	1.17e6	inactive
45	side (GeneID 43300)	SID104194315	1.30e6	1.24e6	1.04e6	1.10e6	inactive
46	side (GeneID 43300)	SID104194508	1.50e6	1.57e6	1.11e6	1.15e6	inactive
47	side (GeneID 43300)	SID104194509	1.53e6	1.59e6	1.08e6	1.15e6	inactive
48	side (GeneID 43300)	SID104194510	1.48e6	1.60e6	1.09e6	1.18e6	inactive
49	side (GeneID 43300)	SID104194513	1.53e6	1.61e6	1.10e6	1.21e6	inactive
50	Ekar (GeneID 43806)	SID104196953	1.54e6	1.47e6	1.07e6	1.17e6	inactive
51	I-2 (GeneID 39156)	SID104190986	1.78e6	1.65e6	9.88e5	1.10e6	inactive
52	asp (GeneID 42946)	SID104196695	1.58e6	1.79e6	1.19e6	1.32e6	inactive
53	DCX-EMAP (GeneID 39617)	SID104189804	1.43e6	1.52e6	1.16e6	1.27e6	inactive
54	DCX-EMAP (GeneID 39617)	SID104189805	1.66e6	1.72e6	1.13e6	1.28e6	inactive
55	DNAlig4 (GeneID 32322)	SID104199228	1.59e6	1.51e6	1.11e6	1.30e6	inactive
56	CG9674 (GeneID 39878)	SID104190880	1.51e6	1.55e6	1.21e6	1.23e6	inactive
57	CG9674 (GeneID 39878)	SID104190881	1.37e6	1.47e6	1.26e6	1.34e6	inactive
58	MTA1-like (GeneID 40693)	SID104192174	1.55e6	1.67e6	1.26e6	1.32e6	inactive
59	SmydA-1 (GeneID 36581)	SID104186992	1.45e6	1.54e6	1.15e6	1.25e6	inactive
